In publication PMC8748794 one finds binding data, which are given here for two substances.

Protein sequences, listed by entry. Tags and fused reporters are not part of them. Lines headed by an entry give the natural chain unless they say otherwise; changes in a name come on top. Residues count along the entry.
UniProt P32558: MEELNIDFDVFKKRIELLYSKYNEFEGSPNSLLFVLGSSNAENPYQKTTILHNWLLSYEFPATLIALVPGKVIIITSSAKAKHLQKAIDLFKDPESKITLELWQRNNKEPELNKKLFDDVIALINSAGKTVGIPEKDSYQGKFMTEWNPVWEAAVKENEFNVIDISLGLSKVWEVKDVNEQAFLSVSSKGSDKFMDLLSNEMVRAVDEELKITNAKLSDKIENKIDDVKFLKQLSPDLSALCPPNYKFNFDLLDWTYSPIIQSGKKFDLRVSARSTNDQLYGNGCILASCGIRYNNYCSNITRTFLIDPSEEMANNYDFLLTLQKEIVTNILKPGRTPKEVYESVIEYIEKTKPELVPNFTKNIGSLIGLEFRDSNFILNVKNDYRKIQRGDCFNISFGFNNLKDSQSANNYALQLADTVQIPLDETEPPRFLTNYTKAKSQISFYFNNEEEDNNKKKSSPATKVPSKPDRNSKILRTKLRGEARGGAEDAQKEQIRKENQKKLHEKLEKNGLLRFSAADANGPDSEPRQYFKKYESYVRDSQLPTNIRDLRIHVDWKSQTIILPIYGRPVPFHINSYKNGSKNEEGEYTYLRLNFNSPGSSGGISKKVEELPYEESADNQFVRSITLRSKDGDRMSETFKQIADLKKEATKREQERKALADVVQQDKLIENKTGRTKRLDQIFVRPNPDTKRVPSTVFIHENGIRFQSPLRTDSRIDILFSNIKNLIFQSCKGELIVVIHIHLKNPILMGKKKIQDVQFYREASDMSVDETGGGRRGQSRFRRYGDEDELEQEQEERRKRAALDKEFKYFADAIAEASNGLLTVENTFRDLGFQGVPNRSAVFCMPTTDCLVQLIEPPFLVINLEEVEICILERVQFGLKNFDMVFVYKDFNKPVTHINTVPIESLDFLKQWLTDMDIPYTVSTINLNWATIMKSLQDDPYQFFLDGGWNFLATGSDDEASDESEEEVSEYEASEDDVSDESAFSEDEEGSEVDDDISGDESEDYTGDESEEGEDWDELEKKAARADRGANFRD
Spt16ΔC: residues 1-958 of P32558
UniProt Q04636: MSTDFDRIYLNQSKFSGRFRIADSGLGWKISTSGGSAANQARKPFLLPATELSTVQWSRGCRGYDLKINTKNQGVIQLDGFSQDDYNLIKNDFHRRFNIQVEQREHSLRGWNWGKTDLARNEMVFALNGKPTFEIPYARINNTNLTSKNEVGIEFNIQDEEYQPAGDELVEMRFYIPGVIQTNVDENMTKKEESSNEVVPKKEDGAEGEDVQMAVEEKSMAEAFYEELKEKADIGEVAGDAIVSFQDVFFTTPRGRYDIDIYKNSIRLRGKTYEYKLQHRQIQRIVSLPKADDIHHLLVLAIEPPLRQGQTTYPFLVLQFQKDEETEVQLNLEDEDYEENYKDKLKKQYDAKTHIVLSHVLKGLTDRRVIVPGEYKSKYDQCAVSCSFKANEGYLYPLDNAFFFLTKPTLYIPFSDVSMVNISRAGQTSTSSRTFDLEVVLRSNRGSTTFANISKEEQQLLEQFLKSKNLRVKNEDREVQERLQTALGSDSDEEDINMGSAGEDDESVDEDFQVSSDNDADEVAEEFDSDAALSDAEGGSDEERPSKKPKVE

Test [1] addresses Spt16 (suppressor of Ty), larger subunit of yeast FACT (yeast) (UniProt P32558). Kind of test: co-purification; purified as heterodimers from yeast cells overexpressing both proteins.
In a further test the target is Spt16ΔC (yeast) (UniProt P32558). The test is described as above.

Results are given in words; binding and its absence hold for the method and conditions named. Some binding calls cover weakened binding; strength is not graded here.

Turning to “Pob3 (polymerase one binding), smaller subunit of yeast FACT (from UniProt Q04636 1-552)”, the binding result (in test [1]; in the test with Spt16ΔC (yeast)) was “binds” each time.
“Pob3ΔC (from UniProt Q04636 1-477) (domain or fragment)”: the binding entry (in test [1]; with Spt16ΔC (yeast)) was “binds” in each case.
